Laboratory results taken from article PMC4330393.
No constants are given. Whether binding was seen depends on the method and setting. Some entries that bind do so weakly or less than the wild type. Tags and fused reporters may be left off the sequences shown.

Assays:
GST-Tap (96–551) (human) = molecular target: T1, GST-Tap (96–551) (human) (UniProt Q9UBU9); assay: co-purification (GST affinity chromatography of co-expressed proteins); GST-Tap (96-551) and untagged p15 co-expressed in E. coli BL21(DE3) codon plus; glutathione-Sepharose, then heparin-agarose chromatography; SDS-PAGE and CBB staining
T1 sequence: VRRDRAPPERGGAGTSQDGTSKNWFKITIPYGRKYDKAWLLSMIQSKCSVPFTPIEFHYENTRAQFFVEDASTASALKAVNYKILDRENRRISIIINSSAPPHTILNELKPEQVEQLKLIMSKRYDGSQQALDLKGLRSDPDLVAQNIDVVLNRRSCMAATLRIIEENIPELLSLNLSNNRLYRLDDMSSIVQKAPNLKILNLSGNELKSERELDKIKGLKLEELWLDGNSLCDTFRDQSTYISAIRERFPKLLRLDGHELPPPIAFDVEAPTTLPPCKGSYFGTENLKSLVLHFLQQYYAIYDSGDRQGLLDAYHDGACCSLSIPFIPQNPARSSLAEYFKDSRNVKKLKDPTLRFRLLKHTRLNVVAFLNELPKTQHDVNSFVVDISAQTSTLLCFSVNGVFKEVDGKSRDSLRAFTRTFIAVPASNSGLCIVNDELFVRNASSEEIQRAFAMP

[1] = molecular target: T2, GST-Tap (372–619) (human) (UniProt Q9UBU9); assay: co-purification (GST affinity chromatography of co-expressed proteins); GST-Tap fragment and untagged p15 co-expressed in E. coli BL21(DE3) codon plus; glutathione-Sepharose chromatography; SDS-PAGE and CBB staining
T2 sequence: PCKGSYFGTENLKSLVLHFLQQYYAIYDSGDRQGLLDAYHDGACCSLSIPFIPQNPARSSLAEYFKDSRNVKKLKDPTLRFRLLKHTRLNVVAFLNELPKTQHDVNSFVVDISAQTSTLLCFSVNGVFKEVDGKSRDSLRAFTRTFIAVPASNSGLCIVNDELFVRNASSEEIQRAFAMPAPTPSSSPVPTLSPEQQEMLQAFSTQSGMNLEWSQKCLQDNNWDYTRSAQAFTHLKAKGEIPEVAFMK

[2] = molecular target: T3, GST-Tap (188–619) (human) (UniProt Q9UBU9); assay: as above
T3 sequence: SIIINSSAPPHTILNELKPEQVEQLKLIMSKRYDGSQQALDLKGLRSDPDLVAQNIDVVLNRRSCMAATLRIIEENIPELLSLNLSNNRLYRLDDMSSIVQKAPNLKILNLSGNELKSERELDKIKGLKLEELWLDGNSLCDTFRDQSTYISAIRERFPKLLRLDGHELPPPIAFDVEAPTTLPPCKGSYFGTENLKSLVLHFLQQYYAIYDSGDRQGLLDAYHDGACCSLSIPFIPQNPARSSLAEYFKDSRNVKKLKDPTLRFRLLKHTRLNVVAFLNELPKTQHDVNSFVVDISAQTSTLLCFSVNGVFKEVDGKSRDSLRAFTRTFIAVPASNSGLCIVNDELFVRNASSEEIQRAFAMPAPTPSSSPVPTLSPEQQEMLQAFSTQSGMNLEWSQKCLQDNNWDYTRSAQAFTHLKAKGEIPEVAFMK

[3] = molecular target: T4, GST-Tap (372–551) (human) (UniProt Q9UBU9); assay: as above
T4 sequence: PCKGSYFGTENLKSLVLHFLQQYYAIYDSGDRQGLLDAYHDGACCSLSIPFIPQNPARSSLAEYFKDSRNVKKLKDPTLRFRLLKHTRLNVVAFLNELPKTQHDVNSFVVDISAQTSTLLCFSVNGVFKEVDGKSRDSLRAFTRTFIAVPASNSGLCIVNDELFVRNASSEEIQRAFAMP

- binding (GST-Tap (96–551) (human)): binds
- binding [1]: binds
- binding [2]: binds
- binding [3]: binds
B1: p15 (protein, UniProt Q9UKK6 1-140)
chain: MASVDFKTYVDQACRAAEEFVNVYYTTMDKRRRLLSRLYMGTATLVWNGNAVSGQESLSEFFEMLPSSEFQISVVDCQPVHDEATPSQTTVLVVICGSVKFEGNKQRDFNQNFILTAQASPSNTVWKIASDCFRFQDWAS
